Assay results reported in PubChem BioAssay AID248 (DTP/NCI, 2004).
The list does not hold the whole screen: it is rich in T/C values a quarter to a half above the control, in often repeated tests (any T/C) and in doses without a T/C. Other doses and runs of a compound stand elsewhere. T/C: endpoint of the treated group in % of that of the vehicle group. Some entries give survivors of the animals treated and no T/C: the source files T/C as zero there, which appears to mark a toxic dose or a test without result, not a measured value. Some survivor counts are full or nearly so, which does not show that the dose was tolerated: survival well below the control is almost never listed, so the zero probably covers shortened survival too. Survivors were counted at the toxicity check, usually on the fifth day, unless a day is given; later deaths do not show. Schedules are NCI's codes, read here as Q, the interval in days (D) or hours (H), X, the number of doses. Some schedules carry Z or #; the key to these is not given. Where survival is the endpoint, this PubChem deposit counts one and a half times the control or more as active, and values a quarter to a half above the control carry no call in these data; other NCI protocols may use other cut-offs. Some entries hold several experiments; their values stand side by side, smallest first.

System: L1210 leukemia ip in BDF1 mice, survival T/C
Experiment: NCI In Vivo Anticancer Drug Screen. Data for tumor model L1210 Leukemia (intraperitoneal) in B6D2F1 (BDF1) mice
Conditions: T/C endpoint: mean survival time, higher T/C = longer survival
[1] = dose: 100.0 mg/kg/injection, schedule: Q04DX002 (ip), vehicle: Klucel (hydroxypropylcellulose) (HPC)
[2] = dose: 200.0 mg/kg/injection, schedule: Q04DX002 (ip), vehicle: Klucel (hydroxypropylcellulose) (HPC)
[3] = dose: 400.0 mg/kg/injection, schedule: Q04DX002 (ip), vehicle: Klucel (hydroxypropylcellulose) (HPC)
[4] = dose: 100.0 mg/kg/injection, schedule: Q04DX003 (ip), vehicle: Klucel (hydroxypropylcellulose) (HPC)
[5] = dose: 200.0 mg/kg/injection, schedule: Q04DX003 (ip), vehicle: Klucel (hydroxypropylcellulose) (HPC)
[6] = dose: 400.0 mg/kg/injection, schedule: Q04DX003 (ip), vehicle: Klucel (hydroxypropylcellulose) (HPC)
[7] = dose: 300.0 mg/kg/injection, schedule: Q01DX001 (ip), vehicle: carboxymethylcellulose (CMC)
[8] = dose: 400.0 mg/kg/injection, schedule: Q01DX009 (ip), vehicle: saline with Tween-80
[9] = dose: 200.0 mg/kg/injection, schedule: Q01DX009 (ip), vehicle: saline
[10] = dose: 200.0 mg/kg/injection, schedule: Q01DX009 (ip), vehicle: saline with Tween-80
[11] = dose: 400.0 mg/kg/injection, schedule: Q04DX003 (ip), vehicle: saline with Tween-80
[12] = dose: 200.0 mg/kg/injection, schedule: Q04DX003 (ip), vehicle: saline with Tween-80
[13] = dose: 400.0 mg/kg/injection, schedule: Q01DX001 (ip), vehicle: saline

## Nc1nc(N)c2cc(N3CCCC3c3ccc(Cl)c(Cl)c3)ccc2n1 (stereo not drawn)
dose: 12.5 mg/kg/injection, schedule: Q01DX009 (ip), vehicle: water
  survivor count: 2 of 6
dose: 25.0 mg/kg/injection, schedule: Q01DX009 (ip), vehicle: water
  survivor count: 1 of 6
dose: 50.0 mg/kg/injection, schedule: Q01DX009 (ip), vehicle: water
  survivor count: 0 of 6
dose: 100.0 mg/kg/injection, schedule: Q01DX009 (ip), vehicle: water
  survivor count: 0 of 6
dose: 200.0 mg/kg/injection, schedule: Q01DX009 (ip), vehicle: water
  survivor count: 0 of 6
dose: 400.0 mg/kg/injection, schedule: Q01DX009 (ip), vehicle: water
  survivor count: 0 of 6

## C[N+](C)(C)c1ccc(/C(C#N)=N/O)cc1
dose: 50.0 mg/kg/injection, schedule: Q01DX009 (ip), vehicle: Klucel (hydroxypropylcellulose) (HPC)
  survivor count: 5 of 6
dose: 100.0 mg/kg/injection, schedule: Q01DX009 (ip), vehicle: Klucel (hydroxypropylcellulose) (HPC)
  survivor count: 0 of 6
dose: 200.0 mg/kg/injection, schedule: Q01DX009 (ip), vehicle: Klucel (hydroxypropylcellulose) (HPC)
  survivor count: 0 of 6
dose: 400.0 mg/kg/injection, schedule: Q01DX009 (ip), vehicle: Klucel (hydroxypropylcellulose) (HPC)
  survivor count: 0 of 6

## NC(CSP(=O)(O)O)=NCC12CC3CC(CC(C3)C1)C2
dose: 40.0 mg/kg/injection, schedule: Q04DX002 (ip), vehicle: Klucel (hydroxypropylcellulose) (HPC)
  survivor count: 1 of 3
[1]
  survivor count: 0 of 3
[2]
  survivor count: 0 of 3
[3]
  survivor count: 0 of 3

## Nc1cccc2cc3ccccc3nc12
[4]
  survivor count: 0 of 6
[5]
  survivor count: 0 of 6
[6]
  survivor count: 0 of 6

## CC(C)CC1NC(=O)C(C(C)C)NC(=O)CC(C)COC(=O)C(CC(C)C)N(C)C(=O)C(C(C)C)NC(=O)C(C(C)C)OC1=O (stereo not drawn)
[7]
  survivor count: 1 of 6

## CC(=O)NC1CCCC2CCCCC21 (stereo not drawn)
[8]
  survivor count: 3 of 6

## CC1(C)N=C(N)N=C(N)N1c1ccc(OCCCNC(=O)Nc2cccc(S(=O)(=O)F)c2)c(Cl)c1
dose: 100.0 mg/kg/injection, schedule: Q01DX009 (ip), vehicle: saline
  T/C: 130 % of control
[9]
  T/C: 135 % of control
dose: 400.0 mg/kg/injection, schedule: Q01DX009 (ip), vehicle: saline
  survivor count: 2 of 6

## O=S1(=O)C2CCCC1C(Cl)CC2 (stereo not drawn)
dose: 30.0 mg/kg/injection, schedule: Q01DX001 (ip), vehicle: carboxymethylcellulose (CMC)
  survivor count: 2 of 6
dose: 60.0 mg/kg/injection, schedule: Q01DX001 (ip), vehicle: carboxymethylcellulose (CMC)
  survivor count: 0 of 6
dose: 75.0 mg/kg/injection, schedule: Q01DX001 (ip), vehicle: carboxymethylcellulose (CMC)
  survivor count: 0 of 6
dose: 150.0 mg/kg/injection, schedule: Q01DX001 (ip), vehicle: carboxymethylcellulose (CMC)
  survivor count: 0 of 6
[7]
  survivor count: 0 of 6

## COc1ncccn1
dose: 150.0 mg/kg/injection, schedule: Q01DX009 (ip), vehicle: saline
  survivor count: 0 of 6
dose: 300.0 mg/kg/injection, schedule: Q01DX009 (ip), vehicle: saline
  survivor count: 0 of 6

## CS(=O)(=O)OCCCOS(C)(=O)=O
dose: 300.0 mg/kg/injection, schedule: Q01DX009 (ip), vehicle: Klucel (hydroxypropylcellulose) (HPC)
  survivor count: 4 of 6

## CCCCCCC12CCC(=O)C1(CCCCCCC(=O)O)O2 (stereo not drawn)
dose: 50.0 mg/kg/injection, schedule: Q04DX002 (ip), vehicle: Klucel (hydroxypropylcellulose) (HPC)
  survivor count: 1 of 3
[1]
  survivor count: 1 of 3
[2]
  survivor count: 1 of 3

## Cc1c2ccc3ccccc3c2c[n+]2ccccc12
dose: 16.0 mg/kg/injection, schedule: Q01DX009 (ip), vehicle: saline sonified
  T/C: 125 and 136 % of control
dose: 50.0 mg/kg/injection, schedule: Q01DX001 (ip), vehicle: carboxymethylcellulose (CMC)
  survivor count: 4 of 4
dose: 100.0 mg/kg/injection, schedule: Q01DX001 (ip), vehicle: carboxymethylcellulose (CMC)
  survivor count: 4 of 4
dose: 200.0 mg/kg/injection, schedule: Q01DX001 (ip), vehicle: carboxymethylcellulose (CMC)
  survivor count: 4 of 4
dose: 400.0 mg/kg/injection, schedule: Q01DX001 (ip), vehicle: carboxymethylcellulose (CMC)
  survivor count: 4 of 4

## OCCN1CCC(CCCC2CCNCC2)CC1
dose: 100.0 mg/kg/injection, schedule: Q01DX Z (ip), vehicle: saline
  survivor count: 0 of 6
dose: 300.0 mg/kg/injection, schedule: Q01DX Z (ip), vehicle: saline
  survivor count: 0 of 6

## c1cn2cncc2cn1
dose: 400.0 mg/kg/injection, schedule: Q04DX003 (ip), vehicle: saline
  survivor count: 0 of 6

## C[N+](C)(C)CCSc1ccc2c3c(cccc13)C(=O)c1ccccc1-2
dose: 100.0 mg/kg/injection, schedule: Q04DX002 (ip), vehicle: saline
  survivor count: 1 of 3
dose: 200.0 mg/kg/injection, schedule: Q04DX002 (ip), vehicle: saline
  survivor count: 0 of 3
dose: 400.0 mg/kg/injection, schedule: Q04DX002 (ip), vehicle: saline
  survivor count: 0 of 3

## CC(C)(CCCO)c1ccccc1
[10]
  survivor count: 1 of 3

## CCNC(C)(C)C(S)c1ccc(Cl)s1 (stereo not drawn)
[10]
  survivor count: 3 of 6
[11]
  survivor count: 1 of 6

## CC(=O)Nc1ccc(S(=O)(=O)Oc2ccc([N+](=O)[O-])cc2)cc1
[9]
  survivor count: 6 of 6

## CCC(C)C(CO)c1ccccc1 (stereo not drawn)
[11]
  survivor count: 0 of 6

## CCCCCCCCC[n+]1ccc(C(N)=O)cc1
[12]
  survivor count: 0 of 6
[11]
  survivor count: 0 of 6

## CCOC(=O)NC1=C(Cl)C(=O)C(NC(=O)OCC)=C(Cl)C1=O
[6]
  survivor count: 5 of 6

## Cc1nonc1C(=O)NN
[2]
  survivor count: 0 of 3
[3]
  survivor count: 0 of 3

## CC(C)CCNc1ccc(NCCC(C)C)cc1
[4]
  survivor count: 2 of 6
dose: 115.0 mg/kg/injection, schedule: Q01DX009 (ip), vehicle: alcohol
  survivor count: 2 of 6
dose: 170.0 mg/kg/injection, schedule: Q01DX009 (ip), vehicle: alcohol
  survivor count: 0 of 6
[5]
  survivor count: 0 of 6
[6]
  survivor count: 0 of 6

## CCN(CC)CCCC(C)Nc1cc(N)c2ncc(-c3ccc(Cl)cc3)nc2n1 (stereo not drawn)
dose: 300.0 mg/kg/injection, schedule: Q01DX001 (ip), vehicle: saline
  survivor count: 1 of 6

## O=C(O)C(O)(C1CCCCC1)C1CCC2CCC3CCCC1C32 (stereo not drawn)
[10]
  survivor count: 6 of 6
[8]
  survivor count: 6 of 6

## CCOC(=O)C1CNc2ccccc2N1 (stereo not drawn)
dose: 100.0 mg/kg/injection, schedule: Q01DX009 (ip), vehicle: saline with Tween-80
  survivor count: 2 of 6
[12]
  survivor count: 2 of 6
[11]
  survivor count: 0 of 6

## CCOC(=O)Nc1cc(NCc2ccccc2)c(N)c(N)n1
[13]
  survivor count: 1 of 6

## OC(c1ccc(F)cc1)(c1ccc(F)cc1)C1CC1
dose: 400.0 mg/kg/injection, schedule: Q01DX001 (ip), vehicle: saline with Tween-80
  survivor count: 3 of 6

## Cc1nc(SCc2ccc(Cl)cc2)nc(N2CC2)c1Br
dose: 133.0 mg/kg/injection, schedule: Q01DX Z (ip), vehicle: methylcellulose (MC)
  survivor count: 6 of 6

## CC1(O)CCCCCCC1
[13]
  survivor count: 2 of 4

## OC1(c2cccc3ccccc23)CCCCC1
[11]
  survivor count: 6 of 6

## CC/C(C#N)=C(\C)C1CC1
dose: 75.0 mg/kg/injection, schedule: Q01DX001 (ip), vehicle: other
  survivor count: 0 of 6
dose: 150.0 mg/kg/injection, schedule: Q01DX001 (ip), vehicle: other
  survivor count: 0 of 6
dose: 300.0 mg/kg/injection, schedule: Q01DX001 (ip), vehicle: other
  survivor count: 0 of 6
